Data as given in PubChem BioAssay AID1508597 (Cure First, 2020).
Assay: 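Knock-downs altering ovarian cancer cell survival with or without PARP inhibitor rucaparib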 (primary screen). System: human ovarian carcinoma lines grown from tumours: OCI-P5x (papillary serous) and OCI-C5x (clear cell). Reagent: siRNA pool against human genes, 1.25 pmol siRNA per well. Time to read-out: 72 h or 96 h, depending on the cell culture. Conditions: rucaparib 20 µM (about IC30) or vehicle, present until read-out. Rucaparib or vehicle: Rucaparib. Cell line: OCI-C5x (clear cell). Measured: 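ATP luminescence measured at 72 or 96 h according to the culture, then normalised and expressed as percent viability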. Direction: viability, normalised: higher = more viable cells remaining. Call rule: 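Active when normalised viability falls below 80 percent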. Meaning of the calls: active = viability under 80%; inactive = viability 80% or more.
This is an unselected part of the about 2,100 reagents, under one of the conditions tested. 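Calls flag viability under 80% in either arm, not effects specific to rucaparib; the reference for percent is not stated.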 Some reagents were tested in more than one well and are listed for each. The record does not give: the 100% reference.

gene symbol | technical replicate | viability, normalised (%) | Outcome
ARFRP1 (ARF related protein 1) | 1 | 80.4 | inactive
ARFRP1 (ARF related protein 1) | 2 | 85.5 | inactive
ARFRP1 (ARF related protein 1) | 3 | 85.7 | inactive
NME8 (NME/NM23 family member 8) | 1 | 44.7 | active
NME8 (NME/NM23 family member 8) | 1 | 50.4 | active
NME8 (NME/NM23 family member 8) | 2 | 46.6 | active
NME8 (NME/NM23 family member 8) | 2 | 58.1 | active
NME8 (NME/NM23 family member 8) | 3 | 32.6 | active
NME8 (NME/NM23 family member 8) | 3 | 67.1 | active
DHFR (dihydrofolate reductase) | 1 | 47.2 | active
DHFR (dihydrofolate reductase) | 2 | 44.9 | active
DHFR (dihydrofolate reductase) | 3 | 51.8 | active
AKAP1 (A-kinase anchoring protein 1) | 1 | 47.3 | active
AKAP1 (A-kinase anchoring protein 1) | 2 | 35.7 | active
AKAP1 (A-kinase anchoring protein 1) | 3 | 45.1 | active
TTBK2 (tau tubulin kinase 2) | 1 | 77.1 | active
TTBK2 (tau tubulin kinase 2) | 2 | 73.4 | active
TTBK2 (tau tubulin kinase 2) | 3 | 50.1 | active
KMT2D (lysine methyltransferase 2D) | 1 | 52.4 | active
KMT2D (lysine methyltransferase 2D) | 2 | 30.2 | active
KMT2D (lysine methyltransferase 2D) | 3 | 36.3 | active
CSNK1G3 (casein kinase 1 gamma 3) | 1 | 52.9 | active
CSNK1G3 (casein kinase 1 gamma 3) | 2 | 50 | active
CSNK1G3 (casein kinase 1 gamma 3) | 3 | 39.2 | active
IRS2 (insulin receptor substrate 2) | 1 | 48.5 | active
IRS2 (insulin receptor substrate 2) | 2 | 57.4 | active
IRS2 (insulin receptor substrate 2) | 3 | 62.5 | active
PAK6 (p21 (RAC1) activated kinase 6) | 1 | 66.6 | active
PAK6 (p21 (RAC1) activated kinase 6) | 1 | 59.6 | active
PAK6 (p21 (RAC1) activated kinase 6) | 2 | 54.7 | active
PAK6 (p21 (RAC1) activated kinase 6) | 2 | 57 | active
PAK6 (p21 (RAC1) activated kinase 6) | 3 | 49 | active
PAK6 (p21 (RAC1) activated kinase 6) | 3 | 52.1 | active
ING4 (inhibitor of growth family member 4) | 1 | 45.5 | active
ING4 (inhibitor of growth family member 4) | 2 | 51 | active
ING4 (inhibitor of growth family member 4) | 3 | 40.2 | active
RBL2 (RB transcriptional corepressor like 2) | 1 | 53.7 | active
RBL2 (RB transcriptional corepressor like 2) | 2 | 49.9 | active
RBL2 (RB transcriptional corepressor like 2) | 3 | 39.6 | active
EME2 (essential meiotic structure-specific endonuclease subunit 2) | 1 | 63.9 | active
EME2 (essential meiotic structure-specific endonuclease subunit 2) | 2 | 71.8 | active
EME2 (essential meiotic structure-specific endonuclease subunit 2) | 3 | 76.6 | active
SLIT3 (slit guidance ligand 3) | 1 | 49.8 | active
SLIT3 (slit guidance ligand 3) | 2 | 51.2 | active
SLIT3 (slit guidance ligand 3) | 3 | 50.6 | active
RAC1 (Rac family small GTPase 1) | 1 | 33 | active
RAC1 (Rac family small GTPase 1) | 2 | 30.8 | active
RAC1 (Rac family small GTPase 1) | 3 | 27.7 | active
DDX20 (DEAD-box helicase 20) | 1 | 57.1 | active
DDX20 (DEAD-box helicase 20) | 2 | 50.6 | active
DDX20 (DEAD-box helicase 20) | 3 | 44.2 | active
SERPINE2 (serpin family E member 2) | 1 | 55.1 | active
SERPINE2 (serpin family E member 2) | 2 | 45.8 | active
SERPINE2 (serpin family E member 2) | 3 | 50.6 | active
BMPR1A (bone morphogenetic protein receptor type 1A) | 1 | 56.2 | active
BMPR1A (bone morphogenetic protein receptor type 1A) | 1 | 52.1 | active
BMPR1A (bone morphogenetic protein receptor type 1A) | 2 | 50.5 | active
BMPR1A (bone morphogenetic protein receptor type 1A) | 2 | 70 | active
BMPR1A (bone morphogenetic protein receptor type 1A) | 3 | 55.2 | active
BMPR1A (bone morphogenetic protein receptor type 1A) | 3 | 57 | active
ACIN1 (apoptotic chromatin condensation inducer 1) | 1 | 42.1 | active
ACIN1 (apoptotic chromatin condensation inducer 1) | 2 | 55.9 | active
ACIN1 (apoptotic chromatin condensation inducer 1) | 3 | 38.3 | active
SUPT3H (SPT3 homolog, SAGA and STAGA complex component) | 1 | 50.5 | active
SUPT3H (SPT3 homolog, SAGA and STAGA complex component) | 2 | 43.2 | active
SUPT3H (SPT3 homolog, SAGA and STAGA complex component) | 3 | 50 | active
TINF2 (TERF1 interacting nuclear factor 2) | 1 | 45.8 | active
TINF2 (TERF1 interacting nuclear factor 2) | 2 | 57.2 | active
TINF2 (TERF1 interacting nuclear factor 2) | 3 | 45.1 | active
SLIT2 (slit guidance ligand 2) | 1 | 35 | active
SLIT2 (slit guidance ligand 2) | 2 | 27.1 | active
SLIT2 (slit guidance ligand 2) | 3 | 34.1 | active
TNK2 (tyrosine kinase non receptor 2) | 1 | 92.7 | inactive
TNK2 (tyrosine kinase non receptor 2) | 2 | 121 | inactive
TNK2 (tyrosine kinase non receptor 2) | 3 | 102 | inactive

10 entries already listed, arranged by “viability, normalised (%)”, low to high.
gene symbol | technical replicate | viability, normalised (%) | Outcome
KMT2D (lysine methyltransferase 2D) | 2 | 30.2 | active
AKAP1 (A-kinase anchoring protein 1) | 2 | 35.7 | active
KMT2D (lysine methyltransferase 2D) | 3 | 36.3 | active
AKAP1 (A-kinase anchoring protein 1) | 3 | 45.1 | active
CSNK1G3 (casein kinase 1 gamma 3) | 2 | 50 | active
TTBK2 (tau tubulin kinase 2) | 3 | 50.1 | active
KMT2D (lysine methyltransferase 2D) | 1 | 52.4 | active
CSNK1G3 (casein kinase 1 gamma 3) | 1 | 52.9 | active
TTBK2 (tau tubulin kinase 2) | 2 | 73.4 | active
TTBK2 (tau tubulin kinase 2) | 1 | 77.1 | active
